At least one read-out could not be matched to a standard name with certainty.
Experiment: Plasma drug concentration versus time after a single 10 mg dose
Assay type: in vivo
Conditions: i.p., golden hamster, five hours after maximum, read-out: plasma concentration five hours later
Excerpt: Five hours later the plasma concentrations of both inhibitors were still above […], far above their competitive inhibition constants for ALDH-I.

Compound	concentration [µM]
O=C(O)CCCCCCOc1ccc2c(=O)c(-c3ccc(O)cc3)coc2c1 [Daidzein 7-(ω-carboxyhexyl) ether, daidzein 7-(ω-carboxyhexyl) ether]	> 2
O=c1c(-c2ccc(O)cc2)coc2cc(O[C@@H]3O[C@H](CO)[C@@H](O)[C@H](O)[C@H]3O)ccc12 [Daidzin, 7-glucoside of daidzein]	> 2
